Laboratory results as given in publication PMC3660578.
No constants are given. Whether binding was seen depends on the method and setting. Some binding calls cover weakened binding; strength is not graded here.

Target: T1, bovine Cytokeratin 18 nat (bovine) (UniProt F6S1Q0)
T1 sequence: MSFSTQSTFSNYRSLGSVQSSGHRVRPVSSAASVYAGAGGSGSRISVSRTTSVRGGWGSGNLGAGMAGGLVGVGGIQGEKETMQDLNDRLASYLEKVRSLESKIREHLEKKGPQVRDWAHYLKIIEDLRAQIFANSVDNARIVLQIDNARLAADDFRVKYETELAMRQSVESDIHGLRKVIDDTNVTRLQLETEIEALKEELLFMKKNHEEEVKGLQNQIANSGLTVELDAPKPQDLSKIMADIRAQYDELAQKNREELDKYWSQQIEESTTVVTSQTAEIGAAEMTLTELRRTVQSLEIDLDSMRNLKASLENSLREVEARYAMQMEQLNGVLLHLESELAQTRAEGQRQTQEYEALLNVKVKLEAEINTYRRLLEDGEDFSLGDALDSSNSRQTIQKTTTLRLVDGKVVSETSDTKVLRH
Assay: far-Western, overlay or dot blot; proteins separated by SDS-PAGE and transferred to PVDF, blocked with 0.2% Tween 20 in PBS; incubated with recombinant or native protein at 1–2 µg per ml for 30 min in 10 mM phosphate buffer pH 7.4, 0.05% Triton X-100, room temperature; detected with monoclonal antibody, HRP secondary antibody and ECL; both purified

B1: TIP47-rec (protein, UniProt O60664 1-434)
chain: MSADGAEADGSTQVTVEEPVQQPSVVDRVASMPLISSTCDMVSAAYASTKESYPHIKTVCDAAEKGVRTLTAAAVSGAQPILSKLEPQIASASEYAHRGLDKLEENLPILQQPTEKVLADTKELVSSKVSGAQEMVSSAKDTVATQLSEAVDATRGAVQSGVDKTKSVVTGGVQSVMGSRLGQMVLSGVDTVLGKSEEWADNHLPLTDAELARIATSLDGFDVASVQQQRQEQSYFVRLGSLSERLRQHAYEHSLGKLRATKQRAQEALLQLSQVLSLMETVKQGVDQKLVEGQEKLHQMWLSWNQKQLQGPEKEPPKPEQVESRALTMFRDIAQQLQATCTSLGSSIQGLPTNVKDQVQQARRQVEDLQATFSSIHSFQDLSSSILAQSRERVASAREALDHMVEYVAQNTPVTWLVGPFAPGITEKAPEEKK
B1 was tested, and the binding was “binds”.
